Data as given in the supplement of paper PMC7666118.
Some of the results follow.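 How the source made its calls: active = dose-dependent thermal stabilisation significant by F-test of dose-response against flat model at 10% FDR; inactive = not significant.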

The chains behind the UniProt entries cited, without tags or fusion partners. Where a name states a change or a piece, a line headed by the entry shows the natural chain unless it says otherwise.
UniProt P28702: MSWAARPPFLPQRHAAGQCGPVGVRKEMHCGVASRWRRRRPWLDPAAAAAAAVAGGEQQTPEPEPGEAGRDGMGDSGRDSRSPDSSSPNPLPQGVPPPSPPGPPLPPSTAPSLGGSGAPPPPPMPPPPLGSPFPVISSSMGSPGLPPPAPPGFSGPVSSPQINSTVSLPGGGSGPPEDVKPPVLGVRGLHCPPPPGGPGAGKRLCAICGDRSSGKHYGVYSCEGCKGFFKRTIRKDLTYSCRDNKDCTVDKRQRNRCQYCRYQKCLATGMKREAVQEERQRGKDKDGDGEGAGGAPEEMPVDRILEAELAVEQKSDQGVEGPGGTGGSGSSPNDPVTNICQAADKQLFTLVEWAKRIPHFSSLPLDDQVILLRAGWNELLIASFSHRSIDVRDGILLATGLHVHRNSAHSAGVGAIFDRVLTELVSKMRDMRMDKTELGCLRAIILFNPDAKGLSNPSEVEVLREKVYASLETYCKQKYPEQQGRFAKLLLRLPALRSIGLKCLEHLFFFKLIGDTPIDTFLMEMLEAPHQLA
UniProt Q5W0B1: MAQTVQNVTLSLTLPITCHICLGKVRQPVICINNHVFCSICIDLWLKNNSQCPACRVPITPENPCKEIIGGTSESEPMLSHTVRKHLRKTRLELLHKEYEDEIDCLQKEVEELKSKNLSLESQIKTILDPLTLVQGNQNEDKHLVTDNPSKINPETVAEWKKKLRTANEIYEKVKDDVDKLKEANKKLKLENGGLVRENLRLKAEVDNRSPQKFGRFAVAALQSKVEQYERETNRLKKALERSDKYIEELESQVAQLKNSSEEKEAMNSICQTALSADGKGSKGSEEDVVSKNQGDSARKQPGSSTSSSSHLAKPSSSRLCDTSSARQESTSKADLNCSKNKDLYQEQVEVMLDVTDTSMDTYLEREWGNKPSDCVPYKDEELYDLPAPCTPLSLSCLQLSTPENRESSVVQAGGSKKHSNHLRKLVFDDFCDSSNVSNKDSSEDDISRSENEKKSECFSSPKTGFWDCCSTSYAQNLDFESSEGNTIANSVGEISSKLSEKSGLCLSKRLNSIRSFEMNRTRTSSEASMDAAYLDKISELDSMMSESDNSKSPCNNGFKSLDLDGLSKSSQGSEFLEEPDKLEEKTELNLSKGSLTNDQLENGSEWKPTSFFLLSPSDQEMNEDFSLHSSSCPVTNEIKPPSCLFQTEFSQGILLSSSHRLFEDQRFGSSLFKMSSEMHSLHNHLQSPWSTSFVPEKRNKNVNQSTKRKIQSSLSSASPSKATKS
UniProt A3KN83: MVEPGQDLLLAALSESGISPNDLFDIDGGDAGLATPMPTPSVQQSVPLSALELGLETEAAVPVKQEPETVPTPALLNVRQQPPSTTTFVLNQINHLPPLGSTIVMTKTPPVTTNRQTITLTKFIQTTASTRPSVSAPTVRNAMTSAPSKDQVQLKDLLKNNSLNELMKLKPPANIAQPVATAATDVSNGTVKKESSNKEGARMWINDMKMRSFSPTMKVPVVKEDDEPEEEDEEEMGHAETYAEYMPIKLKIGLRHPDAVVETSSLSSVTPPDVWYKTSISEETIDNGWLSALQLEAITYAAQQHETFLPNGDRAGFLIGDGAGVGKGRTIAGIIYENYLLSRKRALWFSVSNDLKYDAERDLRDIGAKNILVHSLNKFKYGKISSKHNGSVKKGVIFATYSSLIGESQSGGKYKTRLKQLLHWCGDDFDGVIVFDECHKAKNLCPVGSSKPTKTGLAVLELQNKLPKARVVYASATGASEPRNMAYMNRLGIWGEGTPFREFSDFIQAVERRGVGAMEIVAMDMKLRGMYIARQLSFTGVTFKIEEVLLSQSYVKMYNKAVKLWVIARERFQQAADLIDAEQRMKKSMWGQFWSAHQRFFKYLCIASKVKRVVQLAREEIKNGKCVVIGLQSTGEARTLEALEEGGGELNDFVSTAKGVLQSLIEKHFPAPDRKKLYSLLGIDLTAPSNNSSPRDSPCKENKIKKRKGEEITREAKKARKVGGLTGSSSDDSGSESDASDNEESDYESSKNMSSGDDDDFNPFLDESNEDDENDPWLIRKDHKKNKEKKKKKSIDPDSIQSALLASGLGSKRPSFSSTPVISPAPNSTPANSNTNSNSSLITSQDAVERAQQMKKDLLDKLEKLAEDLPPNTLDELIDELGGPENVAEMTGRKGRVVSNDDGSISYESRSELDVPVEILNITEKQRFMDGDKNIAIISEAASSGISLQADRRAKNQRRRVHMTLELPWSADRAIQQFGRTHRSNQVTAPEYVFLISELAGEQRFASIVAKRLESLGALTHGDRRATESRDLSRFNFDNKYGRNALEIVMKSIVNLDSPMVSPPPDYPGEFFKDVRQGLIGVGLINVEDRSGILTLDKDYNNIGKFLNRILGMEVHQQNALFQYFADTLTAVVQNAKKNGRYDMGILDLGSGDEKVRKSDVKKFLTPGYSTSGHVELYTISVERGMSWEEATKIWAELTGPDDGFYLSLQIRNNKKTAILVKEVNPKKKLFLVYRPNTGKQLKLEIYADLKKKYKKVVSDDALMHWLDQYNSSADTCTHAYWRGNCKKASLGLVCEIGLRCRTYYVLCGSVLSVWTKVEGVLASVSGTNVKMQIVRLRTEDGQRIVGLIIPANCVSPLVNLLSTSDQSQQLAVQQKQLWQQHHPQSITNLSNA
UniProt P62070: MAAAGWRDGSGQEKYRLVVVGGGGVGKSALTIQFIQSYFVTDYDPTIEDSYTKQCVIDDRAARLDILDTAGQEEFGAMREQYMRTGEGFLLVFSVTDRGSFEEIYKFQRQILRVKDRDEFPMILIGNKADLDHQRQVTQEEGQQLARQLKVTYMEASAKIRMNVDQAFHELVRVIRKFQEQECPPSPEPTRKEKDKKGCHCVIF
UniProt P08134, whole entry: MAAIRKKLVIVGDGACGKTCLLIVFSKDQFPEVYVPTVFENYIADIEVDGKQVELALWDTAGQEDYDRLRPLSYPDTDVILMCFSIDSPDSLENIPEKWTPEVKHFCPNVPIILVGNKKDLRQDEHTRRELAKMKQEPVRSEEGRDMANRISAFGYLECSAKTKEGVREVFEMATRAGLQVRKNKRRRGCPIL
UniProt Q92622: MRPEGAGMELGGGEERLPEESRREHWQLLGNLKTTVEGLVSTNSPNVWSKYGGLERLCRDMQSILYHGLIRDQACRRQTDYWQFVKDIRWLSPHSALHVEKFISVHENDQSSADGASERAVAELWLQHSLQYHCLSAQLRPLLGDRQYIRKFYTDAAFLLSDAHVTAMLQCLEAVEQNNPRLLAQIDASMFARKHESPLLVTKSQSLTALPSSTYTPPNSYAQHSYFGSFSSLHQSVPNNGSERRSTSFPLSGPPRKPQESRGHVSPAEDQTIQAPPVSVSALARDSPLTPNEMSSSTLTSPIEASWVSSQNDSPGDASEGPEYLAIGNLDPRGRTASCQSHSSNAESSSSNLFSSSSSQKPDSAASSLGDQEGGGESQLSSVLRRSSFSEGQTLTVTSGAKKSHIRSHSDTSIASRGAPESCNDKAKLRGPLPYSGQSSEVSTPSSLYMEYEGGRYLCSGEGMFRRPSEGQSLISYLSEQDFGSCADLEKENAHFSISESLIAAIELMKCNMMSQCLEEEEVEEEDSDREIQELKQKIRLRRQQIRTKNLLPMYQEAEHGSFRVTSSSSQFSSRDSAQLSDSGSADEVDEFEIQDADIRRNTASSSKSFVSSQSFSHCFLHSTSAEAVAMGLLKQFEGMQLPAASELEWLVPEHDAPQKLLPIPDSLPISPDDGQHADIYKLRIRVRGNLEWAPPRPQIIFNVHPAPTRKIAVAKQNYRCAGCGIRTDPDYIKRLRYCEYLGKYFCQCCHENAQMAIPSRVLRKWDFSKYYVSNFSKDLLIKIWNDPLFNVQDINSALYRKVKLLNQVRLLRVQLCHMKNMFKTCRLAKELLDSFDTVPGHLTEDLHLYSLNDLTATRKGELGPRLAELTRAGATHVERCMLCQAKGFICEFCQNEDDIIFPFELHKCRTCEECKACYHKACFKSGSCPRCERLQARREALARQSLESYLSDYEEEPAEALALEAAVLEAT
UniProt P84101: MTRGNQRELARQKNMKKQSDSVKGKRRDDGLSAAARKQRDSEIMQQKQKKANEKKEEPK
UniProt Q6IQ49: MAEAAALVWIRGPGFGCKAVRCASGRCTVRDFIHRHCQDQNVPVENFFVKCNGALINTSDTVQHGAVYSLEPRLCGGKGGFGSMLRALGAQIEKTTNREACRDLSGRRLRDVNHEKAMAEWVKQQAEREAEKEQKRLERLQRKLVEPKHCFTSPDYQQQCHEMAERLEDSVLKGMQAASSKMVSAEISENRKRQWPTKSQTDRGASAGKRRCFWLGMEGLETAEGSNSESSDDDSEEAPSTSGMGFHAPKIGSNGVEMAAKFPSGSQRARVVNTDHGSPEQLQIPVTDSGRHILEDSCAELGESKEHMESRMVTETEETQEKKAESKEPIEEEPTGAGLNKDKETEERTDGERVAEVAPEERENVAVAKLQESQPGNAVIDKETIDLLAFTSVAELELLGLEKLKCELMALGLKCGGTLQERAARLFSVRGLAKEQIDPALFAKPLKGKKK
UniProt Q8WYJ6: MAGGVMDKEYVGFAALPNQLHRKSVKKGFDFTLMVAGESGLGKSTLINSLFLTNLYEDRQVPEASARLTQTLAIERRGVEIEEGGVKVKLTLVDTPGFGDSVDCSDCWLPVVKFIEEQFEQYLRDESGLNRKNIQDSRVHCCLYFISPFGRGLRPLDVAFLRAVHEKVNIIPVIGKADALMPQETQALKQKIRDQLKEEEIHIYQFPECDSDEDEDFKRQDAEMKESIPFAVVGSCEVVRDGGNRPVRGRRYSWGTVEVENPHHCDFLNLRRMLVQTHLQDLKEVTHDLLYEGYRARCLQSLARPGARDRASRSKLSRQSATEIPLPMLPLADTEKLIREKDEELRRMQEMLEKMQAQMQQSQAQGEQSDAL
UniProt P10301: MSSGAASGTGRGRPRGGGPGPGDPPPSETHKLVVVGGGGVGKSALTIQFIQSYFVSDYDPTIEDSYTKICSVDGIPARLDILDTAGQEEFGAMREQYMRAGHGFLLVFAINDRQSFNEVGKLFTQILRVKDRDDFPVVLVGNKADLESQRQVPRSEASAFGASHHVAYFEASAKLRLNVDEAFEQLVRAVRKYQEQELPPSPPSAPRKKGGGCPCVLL
UniProt O94979: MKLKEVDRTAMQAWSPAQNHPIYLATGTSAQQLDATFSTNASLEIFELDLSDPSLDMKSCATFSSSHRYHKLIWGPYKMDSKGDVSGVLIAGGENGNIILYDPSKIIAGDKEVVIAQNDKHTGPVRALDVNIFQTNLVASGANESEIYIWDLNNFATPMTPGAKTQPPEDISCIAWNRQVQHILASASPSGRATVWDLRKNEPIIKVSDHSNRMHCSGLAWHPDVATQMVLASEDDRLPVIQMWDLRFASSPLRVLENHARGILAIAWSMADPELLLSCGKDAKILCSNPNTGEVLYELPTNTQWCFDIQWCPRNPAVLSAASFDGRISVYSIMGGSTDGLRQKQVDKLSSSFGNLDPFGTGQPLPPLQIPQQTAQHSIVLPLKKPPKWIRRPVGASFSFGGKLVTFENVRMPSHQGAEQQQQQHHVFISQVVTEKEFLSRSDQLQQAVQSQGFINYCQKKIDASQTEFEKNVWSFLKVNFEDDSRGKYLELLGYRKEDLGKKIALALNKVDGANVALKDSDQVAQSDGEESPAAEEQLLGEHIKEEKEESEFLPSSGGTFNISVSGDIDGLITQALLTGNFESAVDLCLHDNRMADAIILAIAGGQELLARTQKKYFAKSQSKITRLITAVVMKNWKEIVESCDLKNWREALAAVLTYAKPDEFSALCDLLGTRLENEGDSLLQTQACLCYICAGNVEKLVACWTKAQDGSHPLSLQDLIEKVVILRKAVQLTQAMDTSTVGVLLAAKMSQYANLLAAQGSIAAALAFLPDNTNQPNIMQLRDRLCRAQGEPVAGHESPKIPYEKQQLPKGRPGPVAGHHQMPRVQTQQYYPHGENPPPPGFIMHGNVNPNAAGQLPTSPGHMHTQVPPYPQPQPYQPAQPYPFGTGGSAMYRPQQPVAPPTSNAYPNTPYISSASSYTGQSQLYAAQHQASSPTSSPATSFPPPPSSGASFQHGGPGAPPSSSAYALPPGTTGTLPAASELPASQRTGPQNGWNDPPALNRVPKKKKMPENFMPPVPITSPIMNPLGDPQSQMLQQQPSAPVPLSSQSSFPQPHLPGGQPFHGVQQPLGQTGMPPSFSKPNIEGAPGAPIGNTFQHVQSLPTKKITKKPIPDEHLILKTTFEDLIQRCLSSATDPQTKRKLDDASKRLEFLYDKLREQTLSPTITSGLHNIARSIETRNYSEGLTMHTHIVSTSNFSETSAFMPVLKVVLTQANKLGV

Compound: Nc1nc2c(ncn2[C@@H]2O[C@H](COP(=O)(O)OP(=O)(O)OP(=O)(O)O)[C@@H](O)[C@H]2O)c(=O)[nH]1
Test: dose-dependent thermal stabilisation call (2D-TPP, DLPTP, 10% FDR) (binary (1 = stabilised)); higher = stabilised by the compound
Settings: system: Jurkat gel-filtered lysate; concentration range 1-500 µM
Experimental: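 2D thermal proteome profiling in gel-filtered Jurkat E6.1 lysate (2 mg/ml) treated with NaGTP (0, 1, 10, 100, 500 uM) for 10 min at room temperature, then heated 3 min at one of 12 temperatures (42-63.9 C). Soluble protein was quantified by TMT10 MS. The value is the DLPTP call of the paper: dose-dependent thermal stabilisation over all temperatures at 10% FDR (F-test of a dose-response against a flat model); one experiment, one call per tested protein.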

Target	dose-dependent thermal stabilisation call
SCAF4 (UniProt O95104)	inactive: 0
RXRB (UniProt P28702)	inactive: 0
RPRD1A (UniProt Q96P16)	active: 1
RNF219 (UniProt Q5W0B1)	inactive: 0
RPSA (UniProt P08865)	inactive: 0
RRAGA (UniProt Q7L523)	active: 1
RPS27A (UniProt P62979)	inactive: 0
RPA3 (UniProt P35244)	inactive: 0
SH3BGRL (UniProt O75368)	inactive: 0
RPL29 (UniProt P47914)	inactive: 0
RPS6 (UniProt P62753)	active: 1
SBNO1 (UniProt A3KN83)	inactive: 0
RRAS2 (UniProt P62070)	active: 1
SAFB2 (UniProt Q14151)	inactive: 0
SETDB1 (UniProt Q15047)	inactive: 0
RSF1 (UniProt Q96T23)	inactive: 0
RPL5 (UniProt P46777)	active: 1
SART3 (UniProt Q15020)	active: 1
SH3GL1 (UniProt Q99961)	inactive: 0
RFLNB (UniProt Q8N5W9)	inactive: 0

2 records drawn at random from the list so far, as already listed:
Target	dose-dependent thermal stabilisation call
SH3GL1 (UniProt Q99961)	inactive: 0
RPL5 (UniProt P46777)	active: 1

The list goes on:

Target	dose-dependent thermal stabilisation call
RSBN1 (UniProt Q5VWQ0)	inactive: 0
RHOC (UniProt P08134)	active: 1
RUBCN (UniProt Q92622)	inactive: 0
RPS25 (UniProt P62851)	inactive: 0
RPS27 (UniProt P42677)	inactive: 0
RIDA (UniProt P52758)	inactive: 0
SERF2 (UniProt P84101)	inactive: 0
RNASEH2C (UniProt Q8TDP1)	inactive: 0
SDE2 (UniProt Q6IQ49)	inactive: 0
RHEB (UniProt Q15382)	active: 1
RSL1D1 (UniProt O76021)	active: 1
SART1 (UniProt O43290)	inactive: 0
SEPTIN1 (UniProt Q8WYJ6)	active: 1
RRAS (UniProt P10301)	active: 1
RPL6 (UniProt Q02878)	inactive: 0
RUFY1 (UniProt Q96T51)	inactive: 0
RNF138 (UniProt Q8WVD3)	inactive: 0
RDX (UniProt P35241)	inactive: 0
RNF146 (UniProt Q9NTX7)	inactive: 0
SEC31A (UniProt O94979)	inactive: 0
